Measurements as given in the supplement of paper PMC12595434, “Development of retinoid nuclear receptor pathway antagonists through targeting aldehyde dehydrogenase 1A3” (iScience, 2025).
The list shows a part of the results. The data scatter; read single values as rough.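 Many melting curves are irregular; where none melted, Tm was taken as 64 °C.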

By UniProt entry, the sequences of proteins in these tests, tags left out. Where a name states a change or a piece, a line headed by the entry shows the natural chain unless it says otherwise.
UniProt Q9NVH0: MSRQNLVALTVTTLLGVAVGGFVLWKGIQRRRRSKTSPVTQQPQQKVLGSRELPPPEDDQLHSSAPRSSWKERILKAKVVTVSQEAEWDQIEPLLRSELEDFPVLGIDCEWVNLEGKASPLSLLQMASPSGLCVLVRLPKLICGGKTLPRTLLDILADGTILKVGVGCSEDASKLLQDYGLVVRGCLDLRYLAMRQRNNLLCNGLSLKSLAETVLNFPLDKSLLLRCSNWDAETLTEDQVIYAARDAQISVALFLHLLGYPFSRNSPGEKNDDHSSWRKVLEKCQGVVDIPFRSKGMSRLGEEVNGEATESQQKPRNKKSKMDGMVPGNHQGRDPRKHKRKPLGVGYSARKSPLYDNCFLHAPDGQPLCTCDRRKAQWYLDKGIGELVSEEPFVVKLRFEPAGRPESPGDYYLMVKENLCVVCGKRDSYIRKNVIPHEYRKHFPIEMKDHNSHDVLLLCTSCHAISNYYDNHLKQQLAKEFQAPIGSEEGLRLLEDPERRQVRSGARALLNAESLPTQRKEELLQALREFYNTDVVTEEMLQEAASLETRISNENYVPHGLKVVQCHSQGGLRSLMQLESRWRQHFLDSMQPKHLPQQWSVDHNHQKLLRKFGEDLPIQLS
UniProt Q9NY65, whole entry: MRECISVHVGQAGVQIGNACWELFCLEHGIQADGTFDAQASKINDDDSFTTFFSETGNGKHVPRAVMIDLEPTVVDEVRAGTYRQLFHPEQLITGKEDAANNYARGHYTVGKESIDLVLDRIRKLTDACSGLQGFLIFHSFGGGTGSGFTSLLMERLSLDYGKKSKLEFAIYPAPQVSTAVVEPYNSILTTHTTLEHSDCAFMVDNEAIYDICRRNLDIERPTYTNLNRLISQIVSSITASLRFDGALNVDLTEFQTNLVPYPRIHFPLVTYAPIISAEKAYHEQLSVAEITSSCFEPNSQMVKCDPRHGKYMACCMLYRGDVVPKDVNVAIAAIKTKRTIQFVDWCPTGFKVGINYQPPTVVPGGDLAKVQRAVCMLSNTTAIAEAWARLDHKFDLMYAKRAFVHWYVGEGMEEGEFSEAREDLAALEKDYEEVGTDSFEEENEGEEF
UniProt Q9NZL9, whole entry: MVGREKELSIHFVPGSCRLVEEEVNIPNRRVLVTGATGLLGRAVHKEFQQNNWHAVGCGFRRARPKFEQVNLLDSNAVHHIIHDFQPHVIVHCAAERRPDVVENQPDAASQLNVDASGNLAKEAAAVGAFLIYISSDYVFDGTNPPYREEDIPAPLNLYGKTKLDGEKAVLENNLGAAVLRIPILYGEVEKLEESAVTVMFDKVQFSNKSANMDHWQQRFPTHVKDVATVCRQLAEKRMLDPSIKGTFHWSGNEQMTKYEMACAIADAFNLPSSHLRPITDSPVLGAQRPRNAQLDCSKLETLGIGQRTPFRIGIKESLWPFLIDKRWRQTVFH
UniProt Q9P0J1: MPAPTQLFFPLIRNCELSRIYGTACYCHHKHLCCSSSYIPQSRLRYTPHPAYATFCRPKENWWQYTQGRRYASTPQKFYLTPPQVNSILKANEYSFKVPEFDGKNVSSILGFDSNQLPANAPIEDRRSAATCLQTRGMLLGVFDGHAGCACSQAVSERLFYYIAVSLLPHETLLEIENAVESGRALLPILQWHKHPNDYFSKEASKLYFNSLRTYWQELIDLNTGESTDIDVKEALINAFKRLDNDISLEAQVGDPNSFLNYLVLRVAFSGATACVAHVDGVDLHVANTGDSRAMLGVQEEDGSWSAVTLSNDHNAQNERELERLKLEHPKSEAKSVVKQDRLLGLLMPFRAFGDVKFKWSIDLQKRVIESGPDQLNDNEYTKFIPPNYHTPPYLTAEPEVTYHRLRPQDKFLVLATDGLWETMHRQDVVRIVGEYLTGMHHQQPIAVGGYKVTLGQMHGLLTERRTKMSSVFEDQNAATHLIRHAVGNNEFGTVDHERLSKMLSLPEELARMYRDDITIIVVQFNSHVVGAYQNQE
UniProt Q9P2W9: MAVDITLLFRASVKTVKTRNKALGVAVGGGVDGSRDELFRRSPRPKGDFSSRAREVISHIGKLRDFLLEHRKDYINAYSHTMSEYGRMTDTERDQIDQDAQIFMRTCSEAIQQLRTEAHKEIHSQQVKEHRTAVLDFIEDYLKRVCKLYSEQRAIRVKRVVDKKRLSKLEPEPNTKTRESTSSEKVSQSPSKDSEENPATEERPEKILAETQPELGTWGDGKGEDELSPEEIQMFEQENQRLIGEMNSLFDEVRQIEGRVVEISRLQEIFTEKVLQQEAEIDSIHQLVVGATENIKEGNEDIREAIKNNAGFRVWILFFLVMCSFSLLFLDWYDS
UniProt Q9NZR1: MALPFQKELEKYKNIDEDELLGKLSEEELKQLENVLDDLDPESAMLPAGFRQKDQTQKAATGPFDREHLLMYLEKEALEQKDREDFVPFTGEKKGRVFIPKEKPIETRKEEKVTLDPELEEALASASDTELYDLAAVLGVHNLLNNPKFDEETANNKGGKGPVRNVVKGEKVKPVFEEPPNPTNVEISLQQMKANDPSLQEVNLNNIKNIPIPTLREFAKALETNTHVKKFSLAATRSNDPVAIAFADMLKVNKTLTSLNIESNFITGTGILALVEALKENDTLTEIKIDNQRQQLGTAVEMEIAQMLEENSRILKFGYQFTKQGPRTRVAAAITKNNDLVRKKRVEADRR
UniProt Q9UBV8: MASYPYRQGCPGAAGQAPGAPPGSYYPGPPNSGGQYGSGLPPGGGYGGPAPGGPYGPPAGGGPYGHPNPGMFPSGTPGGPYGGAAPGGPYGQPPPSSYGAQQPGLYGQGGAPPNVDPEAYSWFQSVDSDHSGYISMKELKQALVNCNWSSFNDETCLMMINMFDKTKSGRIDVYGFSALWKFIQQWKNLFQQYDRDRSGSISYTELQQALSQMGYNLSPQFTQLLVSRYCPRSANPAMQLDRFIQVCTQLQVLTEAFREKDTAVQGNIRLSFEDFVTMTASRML
UniProt Q9P275: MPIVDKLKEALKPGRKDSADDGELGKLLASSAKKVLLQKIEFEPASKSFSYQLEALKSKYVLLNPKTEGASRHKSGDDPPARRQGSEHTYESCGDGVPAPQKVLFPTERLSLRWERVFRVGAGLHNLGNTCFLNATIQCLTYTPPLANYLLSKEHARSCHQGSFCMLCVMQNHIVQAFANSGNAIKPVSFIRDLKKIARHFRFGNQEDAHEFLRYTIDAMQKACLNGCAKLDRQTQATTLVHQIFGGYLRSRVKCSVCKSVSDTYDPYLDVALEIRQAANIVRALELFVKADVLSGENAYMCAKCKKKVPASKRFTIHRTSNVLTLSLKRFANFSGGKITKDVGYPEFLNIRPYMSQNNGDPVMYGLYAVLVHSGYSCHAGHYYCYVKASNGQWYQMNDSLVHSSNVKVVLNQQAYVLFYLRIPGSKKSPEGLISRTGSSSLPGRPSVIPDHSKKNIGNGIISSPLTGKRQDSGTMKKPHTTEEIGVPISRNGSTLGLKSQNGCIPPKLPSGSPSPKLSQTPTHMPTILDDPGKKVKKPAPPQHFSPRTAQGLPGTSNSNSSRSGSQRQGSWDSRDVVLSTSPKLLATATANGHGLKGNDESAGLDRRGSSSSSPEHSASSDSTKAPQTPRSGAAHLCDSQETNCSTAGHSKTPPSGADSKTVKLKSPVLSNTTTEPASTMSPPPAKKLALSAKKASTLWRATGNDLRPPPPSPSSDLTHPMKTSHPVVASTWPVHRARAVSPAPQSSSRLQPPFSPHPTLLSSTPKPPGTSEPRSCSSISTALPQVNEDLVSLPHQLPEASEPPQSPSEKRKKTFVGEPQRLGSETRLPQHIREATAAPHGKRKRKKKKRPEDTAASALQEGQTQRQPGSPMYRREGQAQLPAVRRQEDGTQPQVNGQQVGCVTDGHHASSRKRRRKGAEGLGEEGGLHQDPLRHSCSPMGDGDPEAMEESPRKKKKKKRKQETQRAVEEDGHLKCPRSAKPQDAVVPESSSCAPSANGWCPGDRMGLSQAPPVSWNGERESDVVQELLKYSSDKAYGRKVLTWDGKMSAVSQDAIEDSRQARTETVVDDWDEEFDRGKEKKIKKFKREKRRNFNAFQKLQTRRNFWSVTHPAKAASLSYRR
UniProt Q9NWX5: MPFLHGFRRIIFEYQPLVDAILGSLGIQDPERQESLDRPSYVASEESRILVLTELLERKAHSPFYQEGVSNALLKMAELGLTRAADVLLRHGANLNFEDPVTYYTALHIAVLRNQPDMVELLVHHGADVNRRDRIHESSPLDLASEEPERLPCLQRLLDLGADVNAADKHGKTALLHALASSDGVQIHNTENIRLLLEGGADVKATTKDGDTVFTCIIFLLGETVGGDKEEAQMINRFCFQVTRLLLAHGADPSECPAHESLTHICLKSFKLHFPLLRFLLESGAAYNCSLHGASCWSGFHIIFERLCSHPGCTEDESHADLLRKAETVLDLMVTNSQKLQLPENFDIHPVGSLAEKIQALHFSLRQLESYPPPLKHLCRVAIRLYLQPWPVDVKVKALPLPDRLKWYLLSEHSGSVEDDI
UniProt Q9UBE0: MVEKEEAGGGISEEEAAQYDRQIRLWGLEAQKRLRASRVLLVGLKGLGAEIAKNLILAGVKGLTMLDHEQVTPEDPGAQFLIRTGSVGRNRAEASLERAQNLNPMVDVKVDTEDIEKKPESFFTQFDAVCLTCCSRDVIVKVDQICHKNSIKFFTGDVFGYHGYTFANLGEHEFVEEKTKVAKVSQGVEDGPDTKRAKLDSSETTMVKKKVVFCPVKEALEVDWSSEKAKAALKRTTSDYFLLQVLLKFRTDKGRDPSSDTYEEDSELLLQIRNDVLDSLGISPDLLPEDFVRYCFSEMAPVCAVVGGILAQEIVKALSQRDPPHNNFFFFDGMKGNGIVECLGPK
UniProt Q9UBK9, whole entry: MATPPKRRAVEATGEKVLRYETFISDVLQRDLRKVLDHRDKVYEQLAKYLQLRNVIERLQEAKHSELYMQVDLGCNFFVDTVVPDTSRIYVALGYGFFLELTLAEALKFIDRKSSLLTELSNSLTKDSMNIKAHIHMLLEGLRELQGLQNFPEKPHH
UniProt Q9NXC5: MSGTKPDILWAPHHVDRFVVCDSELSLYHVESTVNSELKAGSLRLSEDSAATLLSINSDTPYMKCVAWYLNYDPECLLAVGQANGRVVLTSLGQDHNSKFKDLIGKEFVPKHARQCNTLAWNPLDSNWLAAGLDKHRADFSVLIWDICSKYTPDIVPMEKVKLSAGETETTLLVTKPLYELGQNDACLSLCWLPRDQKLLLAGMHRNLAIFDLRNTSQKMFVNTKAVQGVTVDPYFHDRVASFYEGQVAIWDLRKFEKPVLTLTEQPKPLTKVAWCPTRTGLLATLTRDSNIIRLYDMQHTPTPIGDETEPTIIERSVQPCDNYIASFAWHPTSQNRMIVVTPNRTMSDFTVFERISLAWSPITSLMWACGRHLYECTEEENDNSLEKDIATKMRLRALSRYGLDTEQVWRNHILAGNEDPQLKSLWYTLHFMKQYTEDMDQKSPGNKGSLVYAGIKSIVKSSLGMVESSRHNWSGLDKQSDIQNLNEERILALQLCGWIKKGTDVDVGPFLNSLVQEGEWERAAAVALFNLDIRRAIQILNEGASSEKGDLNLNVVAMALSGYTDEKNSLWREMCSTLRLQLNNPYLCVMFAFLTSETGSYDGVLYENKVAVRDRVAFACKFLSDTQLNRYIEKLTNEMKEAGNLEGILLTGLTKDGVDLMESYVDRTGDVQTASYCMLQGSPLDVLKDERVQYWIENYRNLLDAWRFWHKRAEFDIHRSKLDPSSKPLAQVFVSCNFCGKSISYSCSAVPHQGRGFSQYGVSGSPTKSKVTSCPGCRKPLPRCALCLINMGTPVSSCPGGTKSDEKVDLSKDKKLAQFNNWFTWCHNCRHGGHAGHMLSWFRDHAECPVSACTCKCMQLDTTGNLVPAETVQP
UniProt Q9UBS0: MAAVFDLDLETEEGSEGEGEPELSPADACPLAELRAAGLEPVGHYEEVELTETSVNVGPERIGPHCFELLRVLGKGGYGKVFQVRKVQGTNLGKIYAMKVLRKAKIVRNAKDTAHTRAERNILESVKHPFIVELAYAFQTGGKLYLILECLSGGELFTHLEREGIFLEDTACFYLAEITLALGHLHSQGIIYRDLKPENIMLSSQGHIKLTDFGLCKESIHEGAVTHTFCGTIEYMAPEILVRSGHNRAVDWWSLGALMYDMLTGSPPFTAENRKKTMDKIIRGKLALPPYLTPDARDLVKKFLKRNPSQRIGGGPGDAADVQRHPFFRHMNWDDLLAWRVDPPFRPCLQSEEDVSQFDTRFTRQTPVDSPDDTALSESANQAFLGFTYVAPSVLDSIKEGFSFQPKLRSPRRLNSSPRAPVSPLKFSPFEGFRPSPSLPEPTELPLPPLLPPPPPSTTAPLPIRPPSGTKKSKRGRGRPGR
UniProt Q9NWA0: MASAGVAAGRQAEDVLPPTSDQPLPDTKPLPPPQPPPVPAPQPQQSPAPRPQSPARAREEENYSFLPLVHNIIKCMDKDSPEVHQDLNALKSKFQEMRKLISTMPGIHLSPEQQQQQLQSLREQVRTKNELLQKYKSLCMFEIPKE

The targets below were run with CCc1cnccc1C(=O)Nc1cc2c(cc1F)NC(=O)CC2 (assay: melting temperature shift (DMSO Tm minus MBE1-treated Tm) in cellular thermal proteome profiling; higher = less thermal stabilization by MBE1 (negative = stabilized by MBE1)). Conditions: A375; MBE1 concentration: 100 nM.

Row | Target | melting temperature shift [°C]
1 | UniProt Q9NX31 | 0.849
2 | MORF4L1 (UniProt Q9UBU8) | 1.49
3 | UniProt Q9NX18 | 1.9
4 | UniProt Q9NZI7 | -0.973
5 | UniProt Q9P2D1 | -6.64
6 | ITSN2 (UniProt Q9NZM3) | -0.855
7 | RRBP1 (UniProt Q9P2E9) | -1.24
8 | BCLAF1 (UniProt Q9NYF8) | -0.702
9 | UniProt Q9NZM4 | 0.032
10 | FAIM (UniProt Q9NVQ4) | -0.546
11 | EXD2 (UniProt Q9NVH0) | -0.183
12 | UniProt Q9NY65 | 1.21
13 | MAT2B (UniProt Q9NZL9) | -1.44
14 | PDP1 (UniProt Q9P0J1) | -0.161
15 | CDKN2AIP (UniProt Q9NXV6) | 0.324
16 | STIM2 (UniProt Q9P246) | -0.753
17 | STX18 (UniProt Q9P2W9) | 0.476
18 | MRPL22 (UniProt Q9NWU5) | -3.48
19 | UniProt Q9NZR1 | -0.0977

Row | Target | melting temperature shift [°C]
20 | EXTL2 (UniProt Q9UBQ6) | -0.52
21 | PEF1 (UniProt Q9UBV8) | -0.0335
22 | VPS18 (UniProt Q9P253) | 0.153
23 | POLR3E (UniProt Q9NVU0) | -1.02
24 | MRPL39 (UniProt Q9NYK5) | 0.678
25 | USP36 (UniProt Q9P275) | -0.772
26 | ASB6 (UniProt Q9NWX5) | 0.394
27 | SAE1 (UniProt Q9UBE0) | -0.00671
28 | UXT (UniProt Q9UBK9) | 1.53
29 | MIOS (UniProt Q9NXC5) | -0.859
30 | UBAP1 (UniProt Q9NZ09) | -0.208
31 | GDAP2 (UniProt Q9NXN4) | -0.378
32 | SACS (UniProt Q9NZJ4) | -1.02
33 | UniProt Q9UBS0 | 0.0448
34 | MTPAP (UniProt Q9NVV4) | -0.16
35 | UniProt Q9UDR5 | 0.721
36 | RAB20 (UniProt Q9NX57) | 1.05
37 | UniProt Q9NWA0 | -1.35

Same assay, conditions: A375; MBE1 concentration: 1 uM

Row | Target | melting temperature shift [°C]
38 | UniProt Q9NX31 | -0.275
39 | MORF4L1 (UniProt Q9UBU8) | 0.983
40 | UniProt Q9NX18 | 3.49
41 | UniProt Q9NZI7 | -0.589
42 | UniProt Q9P2D1 | -3.76
43 | ITSN2 (UniProt Q9NZM3) | -0.832
44 | RRBP1 (UniProt Q9P2E9) | 0.452
45 | BCLAF1 (UniProt Q9NYF8) | -0.379
46 | UniProt Q9NZM4 | 0.372
47 | FAIM (UniProt Q9NVQ4) | -0.376
48 | EXD2 (UniProt Q9NVH0) | -0.468
49 | UniProt Q9NY65 | 3.21
50 | MAT2B (UniProt Q9NZL9) | 0.586
51 | PDP1 (UniProt Q9P0J1) | 0.922
52 | CDKN2AIP (UniProt Q9NXV6) | -0.116
53 | STIM2 (UniProt Q9P246) | -0.212
54 | STX18 (UniProt Q9P2W9) | -0.256
55 | MRPL22 (UniProt Q9NWU5) | -3.82
56 | UniProt Q9NZR1 | 0.0366

Row | Target | melting temperature shift [°C]
57 | EXTL2 (UniProt Q9UBQ6) | -2.48
58 | PEF1 (UniProt Q9UBV8) | -0.174
59 | VPS18 (UniProt Q9P253) | -0.0488
60 | POLR3E (UniProt Q9NVU0) | -0.976
61 | MRPL39 (UniProt Q9NYK5) | 0.22
62 | USP36 (UniProt Q9P275) | -0.621
63 | ASB6 (UniProt Q9NWX5) | -0.14
64 | SAE1 (UniProt Q9UBE0) | 0.153
65 | UXT (UniProt Q9UBK9) | 0.0488
66 | MIOS (UniProt Q9NXC5) | 0.22
67 | UBAP1 (UniProt Q9NZ09) | -0.00611
68 | GDAP2 (UniProt Q9NXN4) | -0.741
69 | SACS (UniProt Q9NZJ4) | -1.27
70 | UniProt Q9UBS0 | -0.0384
71 | MTPAP (UniProt Q9NVV4) | -0.98
72 | UniProt Q9UDR5 | 0.714
73 | RAB20 (UniProt Q9NX57) | 1.15
74 | UniProt Q9NWA0 | -4.05
